Test results as given in publication PMC5386783 (Nature medicine, 2016).

System: ZIKV
Assay: ZIKV production from SNB-19 cells, focus-forming unit assay on Vero cells
Assay type: cell-based
Details: Zika virus, SNB-19, read-out: IC50, ZIKV production

In the case of CC[C@H](CO)Nc1nc(NCc2ccccc2)c2ncn(C(C)C)c2n1 [Seliciclib], the IC50 is reported as 24 nM.
